We go through 1 sequence from publication PMC12474915 (Nature Communications, 2025).

Where a protein sequence is shown, tags need not be part of it.

The series concerns the target T1, MET1MTase (Arabidopsis thaliana) (UniProt P34881).
T1 sequence (looked up): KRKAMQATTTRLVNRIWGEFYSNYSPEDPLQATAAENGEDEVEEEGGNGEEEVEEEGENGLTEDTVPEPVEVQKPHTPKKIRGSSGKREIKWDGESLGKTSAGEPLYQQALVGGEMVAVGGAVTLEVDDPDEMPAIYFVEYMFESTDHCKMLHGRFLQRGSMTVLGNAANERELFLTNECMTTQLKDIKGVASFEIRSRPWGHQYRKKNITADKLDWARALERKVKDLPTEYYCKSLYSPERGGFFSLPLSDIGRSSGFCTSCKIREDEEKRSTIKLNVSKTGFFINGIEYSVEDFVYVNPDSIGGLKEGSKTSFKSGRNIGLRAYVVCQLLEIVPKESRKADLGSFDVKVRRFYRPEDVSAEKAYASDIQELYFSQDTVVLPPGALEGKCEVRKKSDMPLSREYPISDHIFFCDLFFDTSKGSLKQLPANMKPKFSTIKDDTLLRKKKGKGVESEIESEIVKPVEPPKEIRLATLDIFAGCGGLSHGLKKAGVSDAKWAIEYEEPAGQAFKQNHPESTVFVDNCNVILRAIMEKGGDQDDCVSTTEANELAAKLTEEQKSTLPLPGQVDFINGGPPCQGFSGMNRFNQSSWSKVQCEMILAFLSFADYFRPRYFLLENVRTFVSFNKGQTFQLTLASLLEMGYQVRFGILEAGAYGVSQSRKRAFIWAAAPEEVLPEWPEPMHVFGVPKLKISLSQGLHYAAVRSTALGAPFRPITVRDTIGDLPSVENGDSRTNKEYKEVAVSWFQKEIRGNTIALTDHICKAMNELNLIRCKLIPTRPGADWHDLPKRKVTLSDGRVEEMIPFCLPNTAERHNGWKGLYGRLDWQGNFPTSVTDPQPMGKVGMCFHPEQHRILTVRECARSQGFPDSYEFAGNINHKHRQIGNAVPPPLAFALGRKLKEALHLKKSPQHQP
Briefly: cryo-EM structure (2.74 A), covalent complex purified by SEC. The conditions noted are these: SAH in the structure, irreversible covalent complex with 5fC, upper strand: 5-methylcytosine at C6, lower strand: 5-fluorocytosine at C6 as printed, recombinant protein, residues 621-1534, protein details: GST tag cleaved (HRV3C, pGEX-6P-1).

For the sequence “ACTTACGGAAGG (double strand) [12 bp hemimethylated DNA (5mCG/5fCG)]”, the binding result was “binds”.
